No constants are given. Whether binding was seen depends on the method and setting.
Biological target: Full length Sso1 WT (a.a. 1-290) (yeast (S. cerevisiae)) (UniProt P32867)
Test: single-molecule pull-down

Protein sequences, listed by entry. Tags and fused reporters are not part of them. Lines headed by an entry give the natural chain unless they say otherwise; changes in a name come on top. Chains listed by the source or under a name are the forms on record and can include a tag or linker.
UniProt P32867: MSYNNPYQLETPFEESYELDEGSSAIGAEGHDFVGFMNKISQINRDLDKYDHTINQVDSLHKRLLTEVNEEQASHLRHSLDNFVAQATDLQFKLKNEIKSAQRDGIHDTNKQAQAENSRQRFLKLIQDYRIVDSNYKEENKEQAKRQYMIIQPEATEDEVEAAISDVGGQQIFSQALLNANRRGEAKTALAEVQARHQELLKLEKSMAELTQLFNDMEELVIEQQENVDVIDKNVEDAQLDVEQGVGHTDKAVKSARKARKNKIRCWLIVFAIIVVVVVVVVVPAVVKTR
Cy3-labeled Sec9 (A442C) (P40357, form named): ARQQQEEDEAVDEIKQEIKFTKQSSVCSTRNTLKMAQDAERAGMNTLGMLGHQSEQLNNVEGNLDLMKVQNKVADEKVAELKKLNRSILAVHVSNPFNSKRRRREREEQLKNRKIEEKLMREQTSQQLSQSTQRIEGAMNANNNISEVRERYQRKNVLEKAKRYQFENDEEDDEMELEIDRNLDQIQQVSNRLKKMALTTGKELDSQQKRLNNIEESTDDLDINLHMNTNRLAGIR

With “Cy3-labeled Sec9 (A442C) (from UniProt P40357 416-651) (domain or fragment)” the binding was “no binding (condition: without exocyst)”.

From publication doi:10.1101/2022.01.16.476540 (bioRxiv, 2022)
